In the supplement of paper PMC10849652:
Some of the results follow.

Amino acid sequences for entries named in this document (tags omitted). A change or cut given only in a name is not applied to a line headed by its entry.
UniProt Q14141: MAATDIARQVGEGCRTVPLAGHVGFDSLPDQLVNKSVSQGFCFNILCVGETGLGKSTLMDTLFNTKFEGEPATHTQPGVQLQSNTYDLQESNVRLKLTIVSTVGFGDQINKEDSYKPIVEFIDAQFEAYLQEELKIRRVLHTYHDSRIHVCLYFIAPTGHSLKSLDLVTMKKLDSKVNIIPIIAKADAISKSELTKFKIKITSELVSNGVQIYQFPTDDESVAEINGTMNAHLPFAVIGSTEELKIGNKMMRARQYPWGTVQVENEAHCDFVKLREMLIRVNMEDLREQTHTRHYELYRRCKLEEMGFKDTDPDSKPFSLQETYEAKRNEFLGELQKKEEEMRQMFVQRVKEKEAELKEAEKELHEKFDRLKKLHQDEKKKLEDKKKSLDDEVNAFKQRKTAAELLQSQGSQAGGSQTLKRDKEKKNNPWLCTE
UniProt Q9UHD8: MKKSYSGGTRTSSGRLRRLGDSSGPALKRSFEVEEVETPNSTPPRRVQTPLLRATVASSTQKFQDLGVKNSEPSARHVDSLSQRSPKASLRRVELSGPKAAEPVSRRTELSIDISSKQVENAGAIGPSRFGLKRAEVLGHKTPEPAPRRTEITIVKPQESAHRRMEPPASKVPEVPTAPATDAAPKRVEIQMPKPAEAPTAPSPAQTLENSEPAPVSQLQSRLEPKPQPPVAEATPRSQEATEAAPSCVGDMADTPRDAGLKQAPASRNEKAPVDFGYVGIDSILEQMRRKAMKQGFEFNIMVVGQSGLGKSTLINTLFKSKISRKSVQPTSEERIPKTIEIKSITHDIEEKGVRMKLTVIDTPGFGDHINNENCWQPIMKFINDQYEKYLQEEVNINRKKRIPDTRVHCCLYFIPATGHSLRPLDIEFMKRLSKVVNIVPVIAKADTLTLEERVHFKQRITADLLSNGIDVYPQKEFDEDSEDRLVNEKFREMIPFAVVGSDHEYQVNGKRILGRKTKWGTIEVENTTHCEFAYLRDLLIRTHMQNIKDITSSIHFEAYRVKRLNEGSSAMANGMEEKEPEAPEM
UniProt P22307: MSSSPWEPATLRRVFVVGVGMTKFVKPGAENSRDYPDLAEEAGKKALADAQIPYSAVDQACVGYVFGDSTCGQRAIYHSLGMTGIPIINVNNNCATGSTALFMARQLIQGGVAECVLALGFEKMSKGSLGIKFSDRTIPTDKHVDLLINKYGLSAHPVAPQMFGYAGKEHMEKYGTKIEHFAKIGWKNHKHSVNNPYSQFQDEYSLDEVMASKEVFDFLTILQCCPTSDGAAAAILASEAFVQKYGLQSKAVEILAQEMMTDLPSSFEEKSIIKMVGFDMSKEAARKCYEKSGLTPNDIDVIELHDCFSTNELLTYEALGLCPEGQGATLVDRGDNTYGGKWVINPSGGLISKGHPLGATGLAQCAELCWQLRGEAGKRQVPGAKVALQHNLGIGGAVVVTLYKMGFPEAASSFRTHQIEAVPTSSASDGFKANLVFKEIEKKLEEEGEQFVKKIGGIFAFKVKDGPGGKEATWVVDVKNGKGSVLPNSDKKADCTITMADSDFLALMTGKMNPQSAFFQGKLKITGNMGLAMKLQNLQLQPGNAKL
UniProt Q86SQ7: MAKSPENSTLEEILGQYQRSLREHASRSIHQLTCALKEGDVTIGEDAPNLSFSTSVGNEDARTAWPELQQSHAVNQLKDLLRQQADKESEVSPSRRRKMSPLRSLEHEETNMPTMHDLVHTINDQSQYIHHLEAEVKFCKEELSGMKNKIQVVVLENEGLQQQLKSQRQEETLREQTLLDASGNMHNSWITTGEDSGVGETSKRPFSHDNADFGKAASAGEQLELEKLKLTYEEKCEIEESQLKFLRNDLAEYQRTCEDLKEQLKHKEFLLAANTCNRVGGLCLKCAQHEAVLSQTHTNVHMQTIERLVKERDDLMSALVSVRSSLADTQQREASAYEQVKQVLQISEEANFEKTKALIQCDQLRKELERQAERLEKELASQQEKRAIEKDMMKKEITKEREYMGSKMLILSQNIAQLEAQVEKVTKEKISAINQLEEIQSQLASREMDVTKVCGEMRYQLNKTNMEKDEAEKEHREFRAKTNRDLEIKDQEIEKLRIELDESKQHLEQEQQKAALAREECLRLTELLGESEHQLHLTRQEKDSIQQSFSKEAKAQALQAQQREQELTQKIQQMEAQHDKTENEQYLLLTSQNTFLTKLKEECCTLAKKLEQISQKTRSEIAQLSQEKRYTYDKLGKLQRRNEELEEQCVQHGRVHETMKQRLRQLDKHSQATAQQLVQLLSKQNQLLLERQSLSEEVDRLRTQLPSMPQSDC
UniProt Q9Y6D0, whole entry, looked up: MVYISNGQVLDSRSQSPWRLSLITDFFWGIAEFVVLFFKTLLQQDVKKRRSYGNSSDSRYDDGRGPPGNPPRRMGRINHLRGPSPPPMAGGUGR
UniProt Q9BY50: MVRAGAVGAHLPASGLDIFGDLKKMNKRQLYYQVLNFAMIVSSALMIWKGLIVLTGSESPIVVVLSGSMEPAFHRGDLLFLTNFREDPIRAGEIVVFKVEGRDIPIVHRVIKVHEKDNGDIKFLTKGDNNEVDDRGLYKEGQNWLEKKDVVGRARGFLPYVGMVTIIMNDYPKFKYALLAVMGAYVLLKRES
UniProt O95486: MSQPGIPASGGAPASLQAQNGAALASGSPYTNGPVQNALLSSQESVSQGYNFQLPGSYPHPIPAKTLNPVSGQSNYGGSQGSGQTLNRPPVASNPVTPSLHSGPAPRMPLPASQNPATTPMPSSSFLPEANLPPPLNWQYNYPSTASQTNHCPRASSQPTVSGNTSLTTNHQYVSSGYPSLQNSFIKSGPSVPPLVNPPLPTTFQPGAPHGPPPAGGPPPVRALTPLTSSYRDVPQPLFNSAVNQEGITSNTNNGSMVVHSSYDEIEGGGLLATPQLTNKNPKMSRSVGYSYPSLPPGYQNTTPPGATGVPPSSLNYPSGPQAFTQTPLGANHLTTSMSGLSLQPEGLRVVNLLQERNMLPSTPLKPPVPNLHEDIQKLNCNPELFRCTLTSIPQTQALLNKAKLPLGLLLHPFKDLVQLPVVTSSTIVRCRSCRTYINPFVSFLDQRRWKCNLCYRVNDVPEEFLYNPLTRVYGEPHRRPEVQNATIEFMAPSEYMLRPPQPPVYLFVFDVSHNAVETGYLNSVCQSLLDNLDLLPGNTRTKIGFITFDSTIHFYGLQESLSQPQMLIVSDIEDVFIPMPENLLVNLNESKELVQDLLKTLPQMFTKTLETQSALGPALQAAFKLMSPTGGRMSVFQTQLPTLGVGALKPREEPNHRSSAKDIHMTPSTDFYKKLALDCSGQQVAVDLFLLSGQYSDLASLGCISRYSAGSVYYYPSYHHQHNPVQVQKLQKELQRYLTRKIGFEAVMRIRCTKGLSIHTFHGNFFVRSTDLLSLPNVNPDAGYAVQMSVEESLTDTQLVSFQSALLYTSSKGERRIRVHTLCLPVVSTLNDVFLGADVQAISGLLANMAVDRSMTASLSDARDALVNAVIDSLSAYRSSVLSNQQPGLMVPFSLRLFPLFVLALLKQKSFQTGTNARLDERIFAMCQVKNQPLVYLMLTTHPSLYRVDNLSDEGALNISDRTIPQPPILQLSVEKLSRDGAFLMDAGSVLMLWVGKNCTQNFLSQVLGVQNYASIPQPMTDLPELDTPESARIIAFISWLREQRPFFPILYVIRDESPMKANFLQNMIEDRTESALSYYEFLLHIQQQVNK
UniProt Q9NSI8: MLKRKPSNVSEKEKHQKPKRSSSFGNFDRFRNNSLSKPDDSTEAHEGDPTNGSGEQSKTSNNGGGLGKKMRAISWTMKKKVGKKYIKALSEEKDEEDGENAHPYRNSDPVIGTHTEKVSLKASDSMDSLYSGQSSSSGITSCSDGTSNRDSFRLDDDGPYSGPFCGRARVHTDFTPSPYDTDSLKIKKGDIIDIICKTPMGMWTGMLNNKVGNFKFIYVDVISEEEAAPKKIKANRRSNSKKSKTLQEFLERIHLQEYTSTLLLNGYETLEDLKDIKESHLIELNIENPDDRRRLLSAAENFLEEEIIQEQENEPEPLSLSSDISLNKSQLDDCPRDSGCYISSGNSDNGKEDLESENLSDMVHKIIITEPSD
UniProt Q0VDG4: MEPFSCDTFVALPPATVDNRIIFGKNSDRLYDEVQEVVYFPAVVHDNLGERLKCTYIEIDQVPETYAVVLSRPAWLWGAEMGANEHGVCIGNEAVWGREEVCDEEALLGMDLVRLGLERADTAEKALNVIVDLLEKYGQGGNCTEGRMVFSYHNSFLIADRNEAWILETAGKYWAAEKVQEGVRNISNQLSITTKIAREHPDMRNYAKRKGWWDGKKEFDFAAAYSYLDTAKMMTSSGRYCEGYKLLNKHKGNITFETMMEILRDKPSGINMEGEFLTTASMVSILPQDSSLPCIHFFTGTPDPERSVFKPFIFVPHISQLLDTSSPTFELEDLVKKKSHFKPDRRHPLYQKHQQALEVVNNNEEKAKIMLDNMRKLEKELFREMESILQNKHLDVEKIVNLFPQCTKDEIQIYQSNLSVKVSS
UniProt Q9BRK5: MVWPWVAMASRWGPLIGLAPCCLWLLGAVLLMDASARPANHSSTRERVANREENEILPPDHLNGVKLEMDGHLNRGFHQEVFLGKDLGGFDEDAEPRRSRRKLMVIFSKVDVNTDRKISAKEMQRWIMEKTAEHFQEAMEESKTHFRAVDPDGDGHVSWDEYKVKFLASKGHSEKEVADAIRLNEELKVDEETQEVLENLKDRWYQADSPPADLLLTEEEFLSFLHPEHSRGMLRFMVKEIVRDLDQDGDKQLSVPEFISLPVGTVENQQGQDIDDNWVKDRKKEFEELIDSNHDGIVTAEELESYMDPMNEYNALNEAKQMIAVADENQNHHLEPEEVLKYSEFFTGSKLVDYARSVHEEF
UniProt Q9HCN8: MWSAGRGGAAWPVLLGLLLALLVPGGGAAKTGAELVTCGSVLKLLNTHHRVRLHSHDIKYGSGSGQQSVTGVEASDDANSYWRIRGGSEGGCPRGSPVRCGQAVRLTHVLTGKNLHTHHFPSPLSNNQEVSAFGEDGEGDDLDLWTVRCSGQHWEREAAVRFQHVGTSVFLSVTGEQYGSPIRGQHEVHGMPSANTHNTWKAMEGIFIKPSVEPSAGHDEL
UniProt P55735: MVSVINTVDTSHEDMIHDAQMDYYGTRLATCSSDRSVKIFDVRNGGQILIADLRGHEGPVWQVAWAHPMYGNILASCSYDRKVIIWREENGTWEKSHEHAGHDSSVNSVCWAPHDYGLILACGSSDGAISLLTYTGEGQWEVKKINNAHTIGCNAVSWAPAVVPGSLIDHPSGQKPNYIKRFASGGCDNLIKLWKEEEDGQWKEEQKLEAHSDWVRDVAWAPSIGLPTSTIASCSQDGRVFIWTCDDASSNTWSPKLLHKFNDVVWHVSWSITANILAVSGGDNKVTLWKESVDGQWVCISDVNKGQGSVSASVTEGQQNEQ
UniProt Q9HD40: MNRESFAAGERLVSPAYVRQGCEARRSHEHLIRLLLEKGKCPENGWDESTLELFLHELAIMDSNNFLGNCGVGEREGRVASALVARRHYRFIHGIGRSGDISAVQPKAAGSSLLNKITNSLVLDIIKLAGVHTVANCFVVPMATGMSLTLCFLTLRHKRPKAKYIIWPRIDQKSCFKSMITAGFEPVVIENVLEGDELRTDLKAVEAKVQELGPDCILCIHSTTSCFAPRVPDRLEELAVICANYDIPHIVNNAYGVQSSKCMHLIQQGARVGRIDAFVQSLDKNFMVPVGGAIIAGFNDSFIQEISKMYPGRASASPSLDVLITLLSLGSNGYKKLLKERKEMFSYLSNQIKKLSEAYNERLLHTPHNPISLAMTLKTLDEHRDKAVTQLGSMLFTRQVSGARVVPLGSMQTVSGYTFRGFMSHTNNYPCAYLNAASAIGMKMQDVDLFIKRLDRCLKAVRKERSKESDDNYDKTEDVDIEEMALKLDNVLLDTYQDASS
UniProt Q96IW7: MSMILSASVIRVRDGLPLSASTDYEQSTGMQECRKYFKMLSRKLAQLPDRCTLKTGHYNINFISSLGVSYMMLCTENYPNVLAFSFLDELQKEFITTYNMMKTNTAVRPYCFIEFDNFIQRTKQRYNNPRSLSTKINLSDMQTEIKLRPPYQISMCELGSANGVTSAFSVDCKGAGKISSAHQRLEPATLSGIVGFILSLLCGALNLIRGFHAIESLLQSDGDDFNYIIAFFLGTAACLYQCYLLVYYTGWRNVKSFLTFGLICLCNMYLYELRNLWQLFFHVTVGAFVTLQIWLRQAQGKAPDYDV
UniProt Q9Y3A5: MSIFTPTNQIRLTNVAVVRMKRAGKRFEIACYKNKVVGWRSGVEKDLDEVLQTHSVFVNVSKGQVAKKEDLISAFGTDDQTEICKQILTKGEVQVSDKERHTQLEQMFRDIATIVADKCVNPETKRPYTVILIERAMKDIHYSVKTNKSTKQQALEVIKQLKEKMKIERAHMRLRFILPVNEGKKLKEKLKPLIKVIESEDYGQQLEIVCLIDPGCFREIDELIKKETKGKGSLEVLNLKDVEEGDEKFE
UniProt Q9NX18: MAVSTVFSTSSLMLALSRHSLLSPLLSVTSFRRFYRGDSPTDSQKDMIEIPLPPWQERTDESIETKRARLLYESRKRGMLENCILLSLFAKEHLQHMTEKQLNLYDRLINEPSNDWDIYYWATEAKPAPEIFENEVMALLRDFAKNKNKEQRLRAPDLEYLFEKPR

Assays:
Experiment in all cases: log2 fold change, soluble protein after heating vs DMSO (PISA); higher = thermal stabilisation; K562 lysate, 10 uM; active = over 0.2 and 3.5 SD of the protein, either way, in both replicates (recomputed)
lapatinib = compound: CS(=O)(=O)CCNCc1ccc(-c2ccc3ncnc(Nc4ccc(OCc5cccc(F)c5)c(Cl)c4)c3c2)o1 [lapatinib]
In short: (§1)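 Following dounce homogenisation of K562 pellets in PBS pH 7.4 with 1 mM MgCl2, crude extract at 1 mg/mL protein was incubated for 30 min with 10 μM compound. Aliquots were then heated for 3 min over 48°C-58°C and pooled, NP-40 was added to 0.5% at 4°C, and soluble protein was recovered as the supernatant at 21,000xg for 90 min. Channel-sum-equalised TMTpro 16plex LC-MS/MS quantified this protein. Each value, from duplicates, is a log-two fold change in thermal stability relative to solvent controls.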

pictilisib = compound: CS(=O)(=O)N1CCN(Cc2cc3nc(-c4cccc5[nH]ncc45)nc(N4CCOCC4)c3s2)CC1 [pictilisib]
In short: as §1

crizotinib = compound: C[C@@H](Oc1cc(-c2cnn(C3CCNCC3)c2)cnc1N)c1c(Cl)ccc(F)c1Cl [crizotinib]
In short: as §1

[1] = compound: C[C@H](C1=CC=C(C=C1)C(=O)NC2=C3C=CNC3=NC=C2)N
In short: as §1

duvelisib = compound: C[C@H](Nc1ncnc2nc[nH]c12)c1cc2cccc(Cl)c2c(=O)n1-c1ccccc1 [duvelisib]
In short: as §1

gandotinib = compound: Cc1cc(Nc2cc(CN3CCOCC3)c3nc(C)c(Cc4ccc(Cl)cc4F)n3n2)n[nH]1 [gandotinib]
In short: as §1

tozasertib = compound: Cc1cc(Nc2cc(N3CCN(C)CC3)nc(Sc3ccc(NC(=O)C4CC4)cc3)n2)n[nH]1 [tozasertib]
In short: as §1

doramapimod = compound: Cc1ccc(-n2nc(C(C)(C)C)cc2NC(=O)Nc2ccc(OCCN3CCOCC3)c3ccccc23)cc1 [doramapimod]
In short: as §1

bafetinib = compound: Cc1ccc(NC(=O)c2ccc(CN3CC[C@H](N(C)C)C3)c(C(F)(F)F)c2)cc1Nc1nccc(-c2cncnc2)n1 [bafetinib]
In short: as §1

[2] = compound: Cc1cccc(CC(=O)N2CCc3c2ccc(-c2cn(C)c4ncnc(N)c24)c3F)n1
In short: as §1

Row | Target | log2 fold change (lapatinib) | log2 fold change (pictilisib) | log2 fold change (crizotinib) | log2 fold change [1] | log2 fold change (duvelisib) | log2 fold change (gandotinib) | log2 fold change (tozasertib) | log2 fold change (doramapimod) | log2 fold change (bafetinib) | log2 fold change [2]
1 | SBNO1 (UniProt A3KN83) | inactive: 0.007 | inactive: -0.008 | inactive: -0.025 | inactive: -0.012 | inactive: 0.01 | inactive: 0.021 | inactive: 0.004 | inactive: 0.041 | inactive: -0.016 | inactive: 0.036
2 | SEPHS2 (UniProt Q99611) | inactive: -0.006 | inactive: -0.019 | inactive: 0.104 | inactive: -0.021 | inactive: 0.017 | inactive: 0.047 | inactive: 0.015 | inactive: -0.01 | inactive: 0.039 | inactive: 0.006
3 | SEPTIN6 (UniProt Q14141) | inactive: -0.009 | inactive: -0.026 | inactive: -0.026 | inactive: -0.013 | inactive: 0.014 | inactive: -0.03 | inactive: -0.011 | inactive: 0.001 | inactive: -0.004 | inactive: -0.046
4 | SEPTIN9 (UniProt Q9UHD8) | inactive: 0 | inactive: -0.011 | inactive: 0.015 | inactive: -0.197 | inactive: 0.003 | inactive: 0.069 | inactive: -0.02 | inactive: 0.009 | inactive: -0.034 | inactive: 0.074
5 | SCP2 (UniProt P22307) | inactive: 0.011 | inactive: -0.025 | inactive: 0.033 | inactive: 0.113 | inactive: 0.002 | inactive: -0.001 | inactive: -0.025 | inactive: 0 | inactive: -0.002 | inactive: -0.05
6 | SDCCAG8 (UniProt Q86SQ7) | inactive: -0.03 | inactive: 0.004 | inactive: -0.03 | inactive: -0.049 | inactive: 0.041 | inactive: 0.011 | inactive: 0.036 | inactive: 0.029 | inactive: 0.01 | inactive: 0.036
7 | SELENBP1 isoform 4 (UniProt Q13228) | inactive: -0.019 | inactive: -0.018 | inactive: 0.034 | inactive: 0.026 | inactive: 0.029 | inactive: 0.008 | inactive: -0.037 | inactive: -0.025 | inactive: 0.031 | inactive: -0.019
8 | SELENOI (UniProt Q9C0D9) | inactive: -0.077 | inactive: 0.114 | inactive: -0.055 | – | inactive: -0.126 | – | inactive: -0.004 | inactive: -0.149 | inactive: 0.05 | –
9 | SELENOK (UniProt Q9Y6D0) | inactive: -0.065 | inactive: -0.048 | – | active: -0.543 | inactive: 0.082 | active: 0.52 | – | – | inactive: -0.027 | active: 0.542
10 | SEC11C (UniProt Q9BY50) | inactive: -0.05 | inactive: -0.028 | inactive: -0.168 | inactive: -0.083 | inactive: -0.064 | inactive: 0.08 | – | inactive: 0.03 | inactive: 0.012 | inactive: 0.208
11 | SCLT1 (UniProt Q96NL6) | inactive: -0.032 | inactive: -0.04 | inactive: -0.07 | inactive: 0.039 | inactive: 0.035 | inactive: -0.025 | inactive: 0.102 | inactive: 0.018 | inactive: -0.106 | inactive: 0.076
12 | SEC24A (UniProt O95486) | inactive: -0.004 | inactive: -0.03 | inactive: 0.009 | inactive: 0.048 | inactive: 0.027 | inactive: -0.077 | inactive: -0.018 | inactive: 0.006 | inactive: 0.003 | inactive: -0.002
13 | SAMSN1 (UniProt Q9NSI8) | inactive: 0.002 | inactive: 0.014 | inactive: -0.004 | inactive: -0.034 | inactive: 0.002 | inactive: 0.048 | inactive: 0.016 | inactive: 0.024 | inactive: -0.025 | inactive: 0.057
14 | SDAD1 (UniProt Q9NVU7) | inactive: -0.045 | inactive: -0.014 | inactive: -0.05 | inactive: 0.007 | inactive: 0.043 | inactive: -0.014 | inactive: -0.005 | inactive: -0.019 | inactive: -0.082 | inactive: 0.067
15 | SEPTIN2 isoform 2 (UniProt Q15019) | inactive: -0.016 | inactive: 0 | inactive: -0.026 | inactive: -0.004 | inactive: 0.013 | inactive: 0.02 | inactive: -0.019 | inactive: 0.024 | inactive: 0.042 | inactive: -0.019
16 | SEC24C (UniProt P53992) | inactive: -0.01 | inactive: -0.033 | inactive: -0.014 | inactive: -0.014 | inactive: -0.003 | inactive: -0.006 | inactive: -0.014 | inactive: 0.022 | inactive: 0.002 | inactive: -0.004

Row | Target | log2 fold change (lapatinib) | log2 fold change (pictilisib) | log2 fold change (crizotinib) | log2 fold change [1] | log2 fold change (duvelisib) | log2 fold change (gandotinib) | log2 fold change (tozasertib) | log2 fold change (doramapimod) | log2 fold change (bafetinib) | log2 fold change [2]
17 | SCRN3 (UniProt Q0VDG4) | inactive: 0.026 | inactive: 0.022 | inactive: -0.017 | inactive: 0.043 | inactive: -0.021 | inactive: -0.02 | inactive: -0.063 | inactive: -0.041 | inactive: -0.035 | inactive: -0.032
18 | SEMA4B (UniProt Q9NPR2) | inactive: 0.038 | inactive: -0.135 | inactive: 0.069 | inactive: -0.104 | inactive: -0.006 | inactive: 0.011 | inactive: -0.006 | inactive: -0.021 | inactive: -0.174 | inactive: 0.043
19 | SEC23A (UniProt Q15436) | inactive: 0.008 | inactive: -0.015 | inactive: -0.001 | inactive: -0.033 | inactive: -0.031 | inactive: -0.081 | inactive: -0.023 | inactive: 0.006 | inactive: -0.016 | inactive: 0.017
20 | SDF4 (UniProt Q9BRK5) | inactive: -0.005 | inactive: 0.003 | inactive: 0 | inactive: 0.084 | inactive: 0.009 | inactive: -0.021 | inactive: 0.001 | inactive: -0.034 | inactive: -0.027 | inactive: -0.05
21 | SDF2L1 (UniProt Q9HCN8) | inactive: -0.03 | inactive: 0.015 | inactive: 0.031 | inactive: -0.147 | inactive: -0.016 | inactive: 0.091 | inactive: -0.014 | inactive: -0.023 | inactive: -0.028 | inactive: -0.011
22 | SEC61G (UniProt P60059) | inactive: -0.094 | inactive: 0.139 | inactive: 0.209 | inactive: -0.331 | inactive: 0.105 | active: 0.46 | inactive: -0.168 | inactive: 0.098 | inactive: -0.192 | inactive: 0.338
23 | SEC13 isoform 3 (UniProt P55735) | inactive: 0 | inactive: 0.023 | inactive: 0.058 | active: 0.417 | inactive: 0.02 | inactive: -0.076 | inactive: 0.01 | inactive: -0.031 | inactive: -0.016 | inactive: -0.068
24 | SENP8 (UniProt Q96LD8) | inactive: -0.004 | inactive: -0.062 | inactive: -0.143 | – | inactive: 0.078 | – | inactive: -0.148 | inactive: 0.012 | inactive: 0.107 | –
25 | SEC16A isoform 5 (UniProt O15027) | inactive: -0.019 | inactive: -0.044 | inactive: 0.018 | inactive: -0.039 | inactive: -0.013 | inactive: -0.014 | inactive: -0.001 | inactive: -0.002 | inactive: 0.031 | inactive: 0.029
26 | SEPSECS (UniProt Q9HD40) | inactive: -0.004 | inactive: 0 | inactive: 0.013 | inactive: -0.051 | inactive: 0.029 | inactive: 0.022 | inactive: -0.016 | inactive: -0.017 | inactive: -0.011 | inactive: 0.018
27 | SEC22A (UniProt Q96IW7) | inactive: -0.087 | inactive: -0.046 | inactive: -0.065 | – | – | – | – | inactive: -0.059 | inactive: -0.043 | –
28 | SBDS (UniProt Q9Y3A5) | inactive: -0.01 | inactive: 0.01 | inactive: 0.012 | inactive: -0.063 | inactive: -0.013 | inactive: 0.032 | inactive: -0.006 | inactive: 0 | inactive: -0.018 | inactive: 0.036
29 | SDHAF2 (UniProt Q9NX18) | inactive: -0.003 | inactive: -0.043 | inactive: -0.048 | – | inactive: 0.003 | – | inactive: 0.006 | inactive: -0.033 | inactive: 0.082 | –
30 | SCAF11 (UniProt Q99590) | inactive: 0.014 | inactive: -0.005 | inactive: 0.079 | inactive: -0.001 | inactive: 0.028 | inactive: 0.032 | inactive: 0.047 | inactive: 0.033 | inactive: -0.012 | inactive: 0.041
31 | SDF2 (UniProt Q99470) | inactive: -0.366 | inactive: 0.024 | inactive: -0.077 | – | – | – | – | inactive: -0.021 | inactive: 0.059 | –

Just log2 fold change (doramapimod), for some of the entries so far:
Row,Target,log2 fold change (doramapimod)
24,SENP8 (UniProt Q96LD8),inactive: 0.012
25,SEC16A isoform 5 (UniProt O15027),inactive: -0.002
